One assay deals with T1, Sli15 (budding yeast) (UniProt P38283).
T1 sequence: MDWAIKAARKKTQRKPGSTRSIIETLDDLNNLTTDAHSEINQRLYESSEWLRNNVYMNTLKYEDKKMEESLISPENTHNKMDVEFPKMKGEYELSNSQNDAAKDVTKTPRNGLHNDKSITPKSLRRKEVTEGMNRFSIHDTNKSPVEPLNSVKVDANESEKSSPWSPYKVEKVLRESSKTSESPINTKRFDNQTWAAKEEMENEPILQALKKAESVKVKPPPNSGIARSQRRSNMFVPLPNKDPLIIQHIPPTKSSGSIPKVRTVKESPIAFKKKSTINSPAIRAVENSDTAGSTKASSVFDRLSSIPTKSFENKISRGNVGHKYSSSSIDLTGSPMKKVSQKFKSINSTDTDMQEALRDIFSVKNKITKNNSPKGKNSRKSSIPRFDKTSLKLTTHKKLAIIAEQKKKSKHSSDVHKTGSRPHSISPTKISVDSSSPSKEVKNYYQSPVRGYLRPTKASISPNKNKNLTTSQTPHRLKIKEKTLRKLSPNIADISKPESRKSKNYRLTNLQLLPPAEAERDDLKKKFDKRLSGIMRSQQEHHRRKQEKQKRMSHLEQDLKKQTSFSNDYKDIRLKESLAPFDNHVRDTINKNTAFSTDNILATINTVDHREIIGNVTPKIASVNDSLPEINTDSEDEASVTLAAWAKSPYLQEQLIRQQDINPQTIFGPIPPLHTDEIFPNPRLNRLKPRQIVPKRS
The assay is described as follows: two-hybrid.

By UniProt entry, the sequences of proteins in these tests, tags left out. Where a name states a change or a piece, a line headed by the entry shows the natural chain unless it says otherwise.
UniProt Q06675: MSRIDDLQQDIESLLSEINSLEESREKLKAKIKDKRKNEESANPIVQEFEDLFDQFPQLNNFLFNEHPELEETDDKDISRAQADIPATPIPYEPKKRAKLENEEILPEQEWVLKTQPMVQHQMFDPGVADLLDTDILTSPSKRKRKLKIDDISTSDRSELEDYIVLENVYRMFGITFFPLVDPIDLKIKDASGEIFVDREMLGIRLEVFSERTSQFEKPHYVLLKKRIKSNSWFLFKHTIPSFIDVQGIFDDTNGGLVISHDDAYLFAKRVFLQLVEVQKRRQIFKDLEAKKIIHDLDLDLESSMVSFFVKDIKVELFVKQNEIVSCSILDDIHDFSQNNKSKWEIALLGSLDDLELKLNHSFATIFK

In assay [1] the target is T2, Sli15 lacking the Bir1-binding domain (N-terminus 1-228 aa) (budding yeast) (UniProt P38283).
T2 sequence: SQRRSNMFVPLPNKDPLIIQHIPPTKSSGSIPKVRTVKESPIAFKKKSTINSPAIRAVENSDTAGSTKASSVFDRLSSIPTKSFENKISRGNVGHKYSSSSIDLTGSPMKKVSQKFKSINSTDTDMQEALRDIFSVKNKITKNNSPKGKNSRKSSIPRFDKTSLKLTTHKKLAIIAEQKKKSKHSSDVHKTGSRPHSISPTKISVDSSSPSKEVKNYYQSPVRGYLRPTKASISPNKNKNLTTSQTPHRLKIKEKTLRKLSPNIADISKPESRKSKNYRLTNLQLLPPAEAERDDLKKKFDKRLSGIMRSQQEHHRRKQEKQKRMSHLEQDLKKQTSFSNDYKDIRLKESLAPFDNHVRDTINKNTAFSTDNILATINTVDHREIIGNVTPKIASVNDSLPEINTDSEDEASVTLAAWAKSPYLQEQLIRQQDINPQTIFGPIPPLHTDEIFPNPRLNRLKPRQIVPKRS
The assay is described as follows: two-hybrid.

The text below walks through data of publication doi:10.1101/515924 (bioRxiv, 2019).

These are yes or no findings as the source states them, for the method shown. Some binding calls cover weakened binding; strength is not graded here.

“Mcm21 lacking the flexible N-terminus (1-50 aa) (from UniProt Q06675 51-368) (domain or fragment)”: in the assay with Sli15 (budding yeast), the binding entry was “binds”. Take Mcm21 (from UniProt Q06675 1-368): the binding entry (in assay [1]; in the assay with Sli15 (budding yeast)) was “binds” throughout.
